In PubChem BioAssay AID1259415 (National Center for Advancing Translational Sciences (NCATS), 2018):
Screen size: about 410,000 compounds; about 18,000 (4.4%) were called active. The inconclusive results got no clear call from the source; some entries with a clear call stand among them for comparison. Rule as the data show it: active = activity change below about -60%; inconclusive = no clear call, values can overlap the other calls; inactive = above about -39%.

Assay: qHTS Assay for inhibitors of the human cytomegalovirus (HCMV)
Conditions: HFF cells, HCMV-luciferase reporter, 72 h; at 57.5 µM; hits give low values
Summary of the method: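 After 16 h attachment at 37C, HFF cells received test compound and HCMV-luciferase (1 PFU/cell); reporter luminescence read 72 h later, data normalized against buffer-only and known inhibitor Salinomycin.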
% is scaled to controls: 0 for no effect and ±100 for the full control effect.

| Structure (SMILES) | activity change, negative = inhibition |
| --- | --- |
| OC[C@@H]1[C@@H](c2ccc(F)cc2)C(c2cccc(Cl)c2)=NN1c1ccccc1 | inconclusive: -53.4% |
| CN(C(=O)CSc1nnc(-c2ccco2)n1N)C1CCCCC1 | inactive: 13.7% |
| CCc1ccc(/C=C2/SC(=S)N(CCC(=O)NCCCN3CCOCC3)C2=O)cc1 | inconclusive: -50.6% |
| Cc1ccc(N=C/C(C(=O)C(F)(F)F)=C(\O)c2cccs2)cc1 | inactive: 63.3% |
| O=C(CCc1ccc(S(=O)(=O)N2CCOCC2)cc1)Nc1ccc2ccccc2c1 | inactive: -9.83% |
| COc1ccc(CNC(=O)CSc2nnc(C)c3c(C)n(-c4ccccc4)nc23)c(OC)c1 | active: -65.4% |
| O=C(/C=C/c1cn(-c2ccccc2)nc1-c1cccnc1)N1CCCCC1 | active: -60.2% |
| Cn1cncc1C#Cc1ccc2cc(C3(O)CCCCC3)oc(=O)c2c1 | inactive: -0.999% |
| Cc1ccc(CNS(=O)(=O)c2cnc(N)nc2)cc1 | inactive: 34.7% |
| O=C(COc1cccc(-n2cnnn2)c1)Nc1ccccc1 | inconclusive: -42.2% |
| O=[N+]([O-])c1cccc2nc(-c3ccccc3)c(-c3ccccc3)nc12 | active: -101% |
| O=C(CCN1C(=O)/C(=C/c2ccccc2F)SC1=S)N[C@@H](CO)Cc1ccccc1 | inconclusive: -46.8% |
| COc1ccc(-c2n[nH]c3c2CN(C(=O)c2ccc(OC)c(OC)c2)CC3)cc1 | inactive: -40% |
| Oc1ccc(-c2nc3ccc(Cl)cn3c2Nc2ccc(Cl)cc2)cc1 | inconclusive: -57.9% |
| COc1ccc(C(C(=O)NC2CCCC2)N(C(=O)c2ccoc2C)c2ccc(C)cc2)cc1 (centres undefined) | inconclusive: -45.6% |
| CCN(CC)CCCNc1nc(-c2ccccc2)nc2ccccc12 | inconclusive: -53.8% |
| COc1ccc(N(CC(=O)Nc2ccc(C)cn2)S(=O)(=O)c2c(C)noc2C)cc1 | inconclusive: -57.3% |
| O=C(C1CCCN(C2CC(=O)N(c3ccc(F)cc3)C2=O)C1)N1CCCC1 (centres undefined) | inactive: 34.3% |
| CCOc1ccc(-c2[nH]ncc2-c2ccc(Cl)cc2)c(O)c1 | active: -85.6% |
| COc1ccc(Cc2nnc(N)s2)cc1 | inactive: 51.7% |
| CC1CC(C)CN(CC(C)(C)NS(=O)(=O)c2ccc(Cl)cc2)C1 (centres undefined) | inconclusive: -59.2% |
| Cc1cc(NS(=O)(=O)c2ccc(Nc3nc(-c4ccc(C)c(C)c4)cs3)cc2)no1 | inconclusive: -42.7% |
| CCS(=O)(=O)N1CCC(C(=O)Oc2ccccc2OC)CC1 | inactive: 19.1% |

Shown in CSV form: part of the list above
Structure (SMILES),"activity change, negative = inhibition"
COc1ccc(-c2n[nH]c3c2CN(C(=O)c2ccc(OC)c(OC)c2)CC3)cc1,inactive: -40%
Cc1cc(NS(=O)(=O)c2ccc(Nc3nc(-c4ccc(C)c(C)c4)cs3)cc2)no1,inconclusive: -42.7%

Further results.

| Structure (SMILES) | activity change, negative = inhibition |
| --- | --- |
| Cc1cc(NC(=O)c2cc(-c3ccc(C)s3)nc3ccccc23)no1 | inactive: 42.4% |
| CCOC(=O)CC(NC(=O)c1cc2ccccc2oc1=O)c1cccc([N+](=O)[O-])c1 (centres undefined) | inactive: -3.99% |
| O=C(Nc1nnc(/N=C/c2ccco2)s1)c1ccc(F)cc1 | inactive: 65.5% |
| CC(=O)c1ccc(OC2(C)CCN(Cc3csc4ccccc34)C2)cc1 (centres undefined) | inconclusive: -53.6% |
| Cc1nc(N)sc1-c1csc(NCc2ccccc2)n1 | inconclusive: -45.8% |
| CCOc1ccc(CC(=NCCc2ccccc2)C2=C(O)CC(C)(C)CC2=O)cc1OCC | inconclusive: -59.4% |
| O=C(C1CCC(Cn2c(=S)[nH]c3ccccc3c2=O)CC1)N1CCN(c2ccccc2)CC1 (centres undefined) | inconclusive: -57.6% |
| Cc1cc(Br)ccc1NC(=O)CSc1c2c(nc3ccccc13)CCC2 | active: -95.5% |
| CCc1ccc(/C=C\C(=O)N2CCCC2)cc1 | inconclusive: -42.8% |
| Cc1cccc(NS(=O)(=O)c2ccc(C)c(C(=O)NCC(c3ccccc3)N(C)C)c2)c1 (centres undefined) | active: -101% |
| Cc1ccccc1C(=O)N1CCN(c2ccc(NC(=S)NC(=O)c3cccs3)cc2)CC1 | inactive: -13% |
| Nc1ncn([C@@H]2O[C@H](CO)[C@@H](O)[C@H]2O)c(=O)n1 | inconclusive: -51.5% |
| CC(COc1ccccc1)N(CCCl)Cc1ccccc1 (centres undefined) | inconclusive: -44.5% |
| N#CC(c1ccccc1)c1ccc(C(=O)c2ccc(F)cc2)cc1 (centres undefined) | inconclusive: -49.1% |
| CNc1ccccc1C(C)(C)c1cc(C)[nH]n1 | active: -65% |
| CC[n+]1c(/C=C2\Sc3ccccc3N2C)ccc2cccc(C)c21 | active: -101% |
| O=[N+]([O-])c1ccc(-c2nc(C(Cl)Cl)c3ccccc3n2)cc1 | active: -102% |
| CCC(=O)Oc1ccc(C(=O)Nc2ccc3c(c2)OCO3)cc1 | active: -103% |
| COC(=O)c1ccc(Nc2ncnc3sccc23)cc1 | active: -62.4% |
| Cc1sc2ncnc(N3CCN(S(=O)(=O)c4ccc(C(C)(C)C)cc4)CC3)c2c1C | active: -81.8% |
| Cc1cc(Nc2ccc(F)cc2F)nc(-n2nc(C)cc2C)n1 | inconclusive: -43.5% |
| CSC(=S)N/N=C(\C)c1ccc(Br)cc1 | inconclusive: -44.2% |
| CC1(NC(=O)CCNC(=O)c2ccc(C(C)(C)C)cc2)CCS(=O)(=O)C1 (centres undefined) | inconclusive: 0% |

In the list so far, 14 have a halogen:

| Structure (SMILES) | activity change, negative = inhibition |
| --- | --- |
| OC[C@@H]1[C@@H](c2ccc(F)cc2)C(c2cccc(Cl)c2)=NN1c1ccccc1 | inconclusive: -53.4% |
| Cc1ccc(N=C/C(C(=O)C(F)(F)F)=C(\O)c2cccs2)cc1 | inactive: 63.3% |
| O=C(CCN1C(=O)/C(=C/c2ccccc2F)SC1=S)N[C@@H](CO)Cc1ccccc1 | inconclusive: -46.8% |
| Oc1ccc(-c2nc3ccc(Cl)cn3c2Nc2ccc(Cl)cc2)cc1 | inconclusive: -57.9% |
| O=C(C1CCCN(C2CC(=O)N(c3ccc(F)cc3)C2=O)C1)N1CCCC1 (centres undefined) | inactive: 34.3% |
| CCOc1ccc(-c2[nH]ncc2-c2ccc(Cl)cc2)c(O)c1 | active: -85.6% |
| CC1CC(C)CN(CC(C)(C)NS(=O)(=O)c2ccc(Cl)cc2)C1 (centres undefined) | inconclusive: -59.2% |
| O=C(Nc1nnc(/N=C/c2ccco2)s1)c1ccc(F)cc1 | inactive: 65.5% |
| Cc1cc(Br)ccc1NC(=O)CSc1c2c(nc3ccccc13)CCC2 | active: -95.5% |
| CC(COc1ccccc1)N(CCCl)Cc1ccccc1 (centres undefined) | inconclusive: -44.5% |
| N#CC(c1ccccc1)c1ccc(C(=O)c2ccc(F)cc2)cc1 (centres undefined) | inconclusive: -49.1% |
| O=[N+]([O-])c1ccc(-c2nc(C(Cl)Cl)c3ccccc3n2)cc1 | active: -102% |
| Cc1cc(Nc2ccc(F)cc2F)nc(-n2nc(C)cc2C)n1 | inconclusive: -43.5% |
| CSC(=S)N/N=C(\C)c1ccc(Br)cc1 | inconclusive: -44.2% |

Next entries follow.

| Structure (SMILES) | activity change, negative = inhibition |
| --- | --- |
| CC(=O)NC(c1cccs1)c1cc([N+](=O)[O-])c2cccnc2c1O (centres undefined) | inconclusive: -58.7% |
| Cc1cc(C)c2nc(N3C(=O)C(O)=C(C(=O)c4ccco4)C3c3ccco3)sc2c1 (centres undefined) | inactive: 16.6% |
| Cc1ccc(NS(=O)(=O)c2ccc(NC(=O)CN(c3cc([N+](=O)[O-])ccc3C)S(C)(=O)=O)cc2)c(C)c1 | inconclusive: -54.8% |
| Nc1c(/C=C2/C=CC(=O)C(O)=C2)c(=O)nc2sc(CC(=O)N3CCCCC3)nn12 | inactive: 0% |
| N#Cc1ccc(C(=O)NC2CCCCCCC2)cc1 | inactive: 51% |
| N/C(=N\OC(=O)CCCN1C(=O)c2ccccc2C1=O)c1ccccn1 | inconclusive: -40.2% |
| O=C(Nc1ccc(Cl)cn1)c1cccc(S(=O)(=O)N2CCCC2)c1 | inconclusive: -41.1% |
| COc1cccc(-c2cnc3c(NC=O)cc(-c4cc(C)c(O)c(C)c4)cn23)c1 | inconclusive: -40.5% |
| CC(=O)N1CCN(c2ccccc2NC(=O)COc2cc(C)ccc2C(C)C)CC1 | inconclusive: -43.8% |
| Cc1cccc2sc(NC(=O)c3cccc(S(=O)(=O)N4CCc5ccccc54)c3)nc12 | inactive: 8.73% |
| O=C(NCc1ccc2c(c1)OCO2)NC12CC3CC(CC(C3)C1)C2 | inactive: 58.3% |
| CS(=O)(=O)N(CCC#N)Cc1ccc(/C=C2\C(=O)Nc3ccccc32)o1 | inactive: -39.7% |
| Cc1ccc(-c2nnc(Nc3ccccc3)c3ccccc23)cc1S(=O)(=O)N1CCN(C)CC1 | inactive: -17.3% |
| CC(C)(C)c1ccc(-c2noc(-c3ccc4c(c3)CCO4)n2)cc1 | inconclusive: -54.5% |
| O=C(Nc1ccc(NS(=O)(=O)c2ccc([N+](=O)[O-])cc2)cc1)c1ccco1 | inconclusive: -53.1% |
| COc1ccc(C(=O)NC(=S)NCc2cccnc2)cc1Br | inconclusive: -59.1% |
| Cc1ccc(CCNC(=O)c2ccc3nc4ccc(Cl)cc4c(=O)n3c2)cc1 | inconclusive: -45.1% |
| O=c1[nH]cnc2c1c(-c1ccccc1)cn2-c1ccccc1 | inactive: -21% |
| O=C(/C=C/NCc1cccnc1)c1ccc(Br)cc1 | inactive: -7.05% |
| CCS(=O)(=O)N1CCN=C1SCc1ccccc1 | inconclusive: -51.8% |
| COc1cccc2cc(-c3nnc(SCC(=O)Nc4nc(C)cs4)n3C)oc12 | inactive: 5.24% |
| O=C(NCc1ccccc1)c1ccc2nccnc2c1 | inconclusive: -44.1% |
| Cc1nc2ccccc2n1CC(=O)N/N=C\C=C\c1ccccc1 | inconclusive: -40.9% |

| Structure (SMILES) | activity change, negative = inhibition |
| --- | --- |
| CCOc1ccc2c(c1)c(=O)c(S(=O)(=O)c1ccc(CC)cc1)cn2C | inconclusive: -43.6% |
| O=C1OC(/C(=C\NCc2ccccc2)[N+](=O)[O-])c2ccccc21 (centres undefined) | inconclusive: -47% |
| CCOC(=O)C(CCCOc1ccccc1)C(=O)OCC | inconclusive: -55.3% |
| CCOC(=O)c1c(C)c(-c2ccccc2)n(CC(=O)Nc2cc(C)cc(C)c2)c1C | active: -96.8% |
| O=C(N1CCN(Cc2ccccc2)CC1)C(Cl)(Cl)Cl | inactive: -16.6% |
| O=C(CSc1nnnn1-c1cccc(C(=O)O)c1)NC(c1ccccc1)c1ccccc1 | inconclusive: -40.2% |
| CCc1ccccc1NC(=O)c1ccc2c(c1)nnn2C1CCCC1 | inactive: -21.7% |
| COc1cccc(-n2nc(C(=O)O)c3ccccc3c2=O)c1 | inconclusive: -41.7% |
| CCOC(=O)CCc1c(C)c(C#N)c2[nH]c3ccccc3n2c1=O | inconclusive: -48.1% |
| CC1Sc2ccc(C(=O)NCc3ccccn3)cc2NC1=O (centres undefined) | inconclusive: -47% |
| COc1ccc(CCC(=O)NCCS(=O)(=O)N2CCN(c3ccccc3F)CC2)cc1 | inactive: -13.4% |
| CC1CC(C)CN(S(=O)(=O)c2ccc3c(c2)CC(C)N3C(=O)C2CC2)C1 (centres undefined) | inconclusive: -53.1% |
| COC(=O)c1cccc(NC(=O)CSc2nnc(C)n2C)c1 | inactive: -24.8% |
| CC(C)c1nc(SCC(=O)c2ccc(F)cc2)c2ccccc2n1 | inconclusive: -48.1% |
| CC1(Cc2ccc(Cl)s2)C(=O)Nc2c(Cl)ccc(Cl)c21 (centres undefined) | inconclusive: -44.2% |
| COc1ccc(NC(=O)CCCn2cnc3ccccc3c2=O)cc1 | inactive: 8.3% |
| CCCn1c(CC)nc([N+](=O)[O-])c1S(=O)(=O)c1ccccc1 | inactive: 33.3% |
| CCC(=O)c1ccc(OCC(=O)N2CCN(c3ncccn3)CC2)cc1 | inconclusive: -52% |
| Cc1ccnc(NS(=O)(=O)c2ccc(-n3cccn3)cc2)c1 | inactive: 22.4% |
| Cc1ccc(C(=O)NCCc2c[nH]c3ccccc23)s1 | inactive: 28% |
